The target of this test is NPM1 IDR (amino acids 119–240) (UniProt P06748). The test can be described thus: solution NMR of the phase-separated condensed phase; condensed phase from 50 uM [^13C,^15N]-p14^ARF and 50 uM NPM-IDR; 10 mM sodium phosphate pH 7.0, 150 mM NaCl, 2 mM TCEP, 1.67% DMSO-d6; pelleted by ultracentrifugation, light phase removed; both purified.

Amino acid sequences for entries named in this document (tags omitted). Residues count along the entry.
UniProt P06748, residues 119-240: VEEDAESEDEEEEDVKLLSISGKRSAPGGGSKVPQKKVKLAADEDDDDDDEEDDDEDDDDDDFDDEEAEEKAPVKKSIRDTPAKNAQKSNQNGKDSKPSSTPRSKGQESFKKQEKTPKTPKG
UniProt Q8N726: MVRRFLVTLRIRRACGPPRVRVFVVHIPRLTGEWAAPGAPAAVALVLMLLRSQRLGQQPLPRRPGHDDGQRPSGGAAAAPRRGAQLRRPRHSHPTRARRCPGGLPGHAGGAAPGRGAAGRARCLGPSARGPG

Among the data in PMC10723529 are binding values, retold here.

No constants are given. Whether binding was seen depends on the method and setting. Some entries that bind do so weakly or less than the wild type.

With “p14 Alternative Reading Frame tumor suppressor protein (p14^ARF), wild type (from UniProt Q8N726 1-132)”, the binding entry is on record as “binds”.
